Taken from: PubChem BioAssay AID1259254 (NCATS, 2017)
The whole screen tested about 59,000 reagents; shown is a part drawn at random. Over the whole deposit, about 1,550 (2.6%) are marked active. 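G2 share is only a proxy for re-replication; each gene was hit by three separate siRNAs, and active genes were retested.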 The raw values are shown without normalisation. A number with no mark means an inactive call. The numbers tell different reagents against one gene apart. The record does not give: the amount of reagent.

- Purpose: 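Genome-wide screen for genes that prevent DNA re-replication in cancer cells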 (primary screen)
- Cell system: human HCT116 colorectal cancer cells
- Reagent: single siRNA against human genes
- Time to read-out: 3 days
- Read-out: 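Nuclei stained with Hoechst and imaged; cell-cycle phase assigned by DNA content; G2 share scaled per plate, non-targeting siRNA 0%, GMNN siRNA 100%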
- Scale: G2 robust z-score and G2 cells, % of GMNN control: higher = more G2 cells, more excess DNA replication; raw share of cells in G2: higher = larger share of cells with G2 DNA content
- Active means: 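An siRNA counts as active if its G2 robust z-score lies at least 5 MADs above the screen median; here such calls match roughly 38% of GMNN control or more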

no.	gene	reagent no.	G2 robust z-score	G2 cells, % of GMNN control	raw share of cells in G2 (%)
1	KDM4C	1	0.672	7.7	6.05
2	KDM4C	2	-0.45	-0.2	4.91
3	KDM4C	3	1.12	10.8	8.61
4	ALOX5AP	1	-0.67	-1.75	3.34
5	ALOX5AP	2	0.0151	3.07	5.77
6	ALOX5AP	3	1.28	12	9.34
7	HROB	1	-0.321	0.709	4.89
8	HROB	2	-0.224	1.39	5.23
9	HROB	3	2.34	19.5	7.83
10	PARVA	1	-0.241	1.27	6.99
11	PARVA	2	0.858	9	7.67
12	PARVA	3	0.765	8.35	7.82
13	CRIPTO	1	-0.585	-1.15	4.62
14	CRIPTO	2	-0.172	1.75	4.59
15	CRIPTO	3	-0.439	-0.121	3.31
16	LAS1L	1	0.65	7.54	6.62
17	LAS1L	2	-0.155	1.88	4.01
18	LAS1L	3	0.307	5.13	3.96
19	MMP11	1	5.97 (active)	44.9	21.2
20	MMP11	2	-0.407	0.105	4.94
21	MMP11	3	-1.02	-4.2	2.34
22	CCDC71	1	0.117	3.79	6.23
23	CCDC71	2	-0.598	-1.24	4.05
24	CCDC71	3	1.03	10.2	5.39
25	TFPI2	1	1.96	16.8	12.7
26	TFPI2	2	-0.104	2.24	5.09
27	TFPI2	3	2.68	21.8	11.7
28	RSPH9	1	-0.372	0.351	3.71
29	RSPH9	2	-0.392	0.211	3.2
30	RSPH9	3	0.791	8.53	5.92
